# From the supplement of paper PMC12259267, “Disruption of the KLHL37–N-Myc complex restores N-Myc degradation and arrests neuroblastoma growth in mouse models” (The Journal of Clinical Investigation, 2025)
# Several values for one entry are separate records, joined by “and”; a condition that tells them apart may be missing. Equal entries are not always repeated. Structures can show the parent of a compound that is named as a salt. Some of the results follow. Many values rest on one well or one pass, so single values are uncertain. Square brackets hold non-standard residues; d marks the D form. Peptide text beside a SMILES is read from it. * marks the point of attachment. Sta = CC(C)C[C@H](N)[C@@H](O)CC(=O)O; Isovaleryl = CC(C)CC(=O)*; Cbz = O=C(OCc1ccccc1)*
# Tested on: SK-N-BE(2)
# Assay: inhibition of N-Myc immunofluorescence signal per cell relative to control (fraction); higher = stronger N-Myc protein reduction
# Conditions: 1 µM; 9 h
row,Compound,inhibition of N-Myc immunofluorescence signal per cell
1,Cc1ncsc1-c1ccc(CNC(=O)[C@@H]2C[C@@H](O)CN2C(=O)[C@@H](NC(=O)C2(F)CC2)C(C)(C)C)c(O)c1 [VH032-cyclopropane-F],0.179
2,OCCNCc1cc(Br)ccc1OCc1ccc(F)c(C(F)(F)F)c1 [USP25/28 inhibitor AZ1],0.102
3,CCN(CC)Cc1ccc2cc(COC(=O)Nc3ccc(C(=O)NO)cc3)ccc2c1 [Givinostat (hydrochloride monohydrate)],-0.136
4,Nc1nc(=S)c2[nH]cnc2[nH]1 [6-Thioguanine],0.102
5,O=C(Nc1ccc2c(O)cc(S(=O)(=O)O)cc2c1)Nc1ccc2c(O)cc(S(=O)(=O)O)cc2c1,-0.146
6,O=C(O)c1c[nH]c2c(ccc3cccnc32)c1=O,0.152
7,Cc1cc([C@H](C(=O)N2C[C@H](O)C[C@H]2C(=O)N[C@@H](CC(=O)O)c2ccccc2)C(C)C)on1 [VHL Ligand 8],0.186
8,CC(C)(CNC(=O)c1cccc(-c2noc(C(F)(F)F)n2)c1)c1coc(-c2ccccc2)n1,0.0444
9,C#Cc1cccc(Nc2ncnc3cc(OC)c(OCCCCCCC(=O)NO)cc23)c1,-0.231
10,COC(=O)CN(c1ccc(CN(c2ccc(OCc3ccc(C)cc3)c(C(=O)OC)c2)S(=O)(=O)Cc2ccccc2)cc1)S(C)(=O)=O,0.233
11,CC(C)(C)OC(=O)CCCCCCCCOc1cccc2c1C(=O)N(C1CCC(=O)NC1=O)C2=O (stereo not given) [Thalidomide-O-C8-Boc],0.0773
12,O=C(CCCCCCC(=O)NO)NO [Suberoyl bis-hydroxamic acid],0.0966
13,OCc1c[nH]c2ccccc12 [Indole-3-carbinol],0.0888
14,O=C(N[C@@H](Cc1coc2ccccc12)B(O)O)[C@@H]1C[C@H]2CC[C@@H]1O2,0.171
15,CCN(CC)Cc1cc(Nc2ccnc3cc(Cl)ccc23)ccc1O [Amodiaquine (dihydrochloride dihydrate)],-0.0548
16,CC(C)[C@H](NC(=O)OCc1ccccc1)C(=O)N[C@H](C=O)Cc1ccccc1 (Cbz-Val-Phe-aldehyde),0.101
17,CCOC(=O)c1ccc(N2NC(=O)C(=Cc3ccc([N+](=O)[O-])o3)C2=O)cc1,0.0292
18,Cc1ccc(/C=C2\CNC/C(=C\c3ccc(C)cc3)C2=O)cc1,0.109

row,Compound,inhibition of N-Myc immunofluorescence signal per cell
1,Clc1ccc(NN=C(c2ccccc2)c2ccccn2)nc1,0.0567
2,O=[N+]([O-])c1ccc(S(=O)(=O)N2CCN(c3ccnc4cc(Cl)ccc34)CC2)c([N+](=O)[O-])c1,0.13
3,CC(C)(C)C[C@@H]1N[C@@H](C(=O)N[C@H]2CC[C@H](O)CC2)[C@H](c2cccc(Cl)c2F)[C@]12C(=O)Nc1cc(Cl)ccc12,0.108 and 0.116
4,c1ccc(CNc2nc(N3CCOc4ccccc43)nc3c2CCCC3)cc1 [ML241 (hydrochloride)],-0.0582
5,Cc1ncsc1-c1ccc(CNC(=O)[C@@H]2C[C@@H](O)CN2C(=O)[C@@H](NC(=O)OC(C)(C)C)C(C)(C)C)cc1,0.216
6,O=C1c2ccccc2C(=O)c2oc(-c3ccccc3)nc21,0.0588
7,CC(C)CC(=O)N[C@H](C(=O)N[C@H](C(=O)N[C@@H](CC(C)C)[C@@H](O)CC(=O)N[C@@H](C)C(=O)N[C@@H](CC(C)C)[C@@H](O)CC(=O)O)C(C)C)C(C)C [Pepstatin (Trifluoroacetate)] (Isovaleryl-VV[Sta]A[Sta]-OH),0.168
8,CC(C)(C)OC(=O)Nc1ccc(-c2cc(C(=O)NCCCCCCC(=O)NO)no2)cc1,-0.041
9,COC[C@H](NC(=O)c1cnc(C)s1)C(=O)N[C@@H](COC)C(=O)N[C@@H](Cc1ccccc1)C(=O)[C@@]1(C)CO1 [Oprozomib],0.204
10,CCCCCCCCCCCCCCCc1cccc(O)c1C(=O)O [Anacardic Acid],-0.133
11,Cc1c(C(=O)Nc2ccc(CN)cc2)ncnc1N1CCC(C#N)(c2ccccc2)CC1,0.144
12,CC(C)N(CCCNC(=O)Nc1ccc(C(C)(C)C)cc1)C[C@H]1O[C@@H](n2cc(Br)c3c(N)ncnc32)[C@H](O)[C@@H]1O,-0.259
13,COc1cc(N(C)C)cc(CN(C)CCc2ccc([N+](=O)[O-])cc2)c1O,-0.109
14,COC(=O)c1ccc(N2CCN(C)CC2)c(NC(=O)c2cccc(OC)c2)c1,-0.0679
15,CCN(CC)C(=O)c1ccc(-c2cc(NCCCN3CCCCC3)c3ccccc3n2)cc1 [LMPTP INHIBITOR 1 (dihydrochloride)],0.0798
16,CC(C)(C)NS(=O)(=O)c1cccc2c(NC(=O)[C@H](Cc3ccccc3)NC(=O)C3CCCCC3)cccc12,-0.136
17,COc1ccc(C2=N[C@@H](c3ccc(Cl)cc3)[C@@H](c3ccc(Cl)cc3)N2C(=O)N2CCNC(=O)C2)c(OC(C)C)c1 [Nutlin-3a],0.178

# Random excerpt: 2 compounds from above.
row,Compound,inhibition of N-Myc immunofluorescence signal per cell
7,CC(C)CC(=O)N[C@H](C(=O)N[C@H](C(=O)N[C@@H](CC(C)C)[C@@H](O)CC(=O)N[C@@H](C)C(=O)N[C@@H](CC(C)C)[C@@H](O)CC(=O)O)C(C)C)C(C)C [Pepstatin (Trifluoroacetate)] (Isovaleryl-VV[Sta]A[Sta]-OH),0.168
2,O=[N+]([O-])c1ccc(S(=O)(=O)N2CCN(c3ccnc4cc(Cl)ccc34)CC2)c([N+](=O)[O-])c1,0.13
